Experimental data as given in paper PMC11303563 (Communications Medicine, 2024).

Test: Measurement of serum T3 concentration (LC-MS)
Conditions: 3 weeks; for Serum T3: HFD mice, 1 μmol/kg day, mean ± SEM (n = 9–10); for serum T3, Calculated Amount (LC-MS): individual mouse serum sample, 1 umol/kg

SMILES | Serum T3 | serum T3, Calculated Amount (LC-MS)
Cc1cc(OCC(=O)O)cc(C)c1Cc1ccc(O)c(C(C)C)c1 [GC-1] | below the quantification limit; also recorded: B.L.Q | -0.913 nM and -0.290 nM and -0.522 nM and 0.038 nM and -0.629 nM and -0.834 nM and 0.652 nM
N[C@@H](Cc1cc(I)c(Oc2ccc(O)c(I)c2)c(I)c1)C(=O)O [T3, triiodothyronine] | 743.5 ± 78.0 ng/dL | 9.522 nM and 5.437 nM and 8.214 nM and 11.155 nM and 8.687 nM and 16.567 nM and 14.446 nM and 14.365 nM and 15.196 nM and 10.628 nM
O=C(O)Cc1cc(C(F)(F)F)c(Cc2ccc(O)c3ccccc23)c(C(F)(F)F)c1 [ZTA-261] | below the quantification limit; also recorded: B.L.Q | -0.749 nM and -0.807 nM and 0.305 nM and -0.893 nM and -0.863 nM and -0.804 nM and -1.044 nM and -0.949 nM

Where “and” joins values, the source holds several entries; their conditions need not be identical. Identical values can stand only once. Entries after “also recorded” stand apart in the source; their conditions may differ.
